# Results from the supplement of paper PMC6411743.
# The chains behind the UniProt entries cited, without tags or fusion partners. Where a name states a change or a piece, a line headed by the entry shows the natural chain unless it says otherwise.
# UniProt Q96S94: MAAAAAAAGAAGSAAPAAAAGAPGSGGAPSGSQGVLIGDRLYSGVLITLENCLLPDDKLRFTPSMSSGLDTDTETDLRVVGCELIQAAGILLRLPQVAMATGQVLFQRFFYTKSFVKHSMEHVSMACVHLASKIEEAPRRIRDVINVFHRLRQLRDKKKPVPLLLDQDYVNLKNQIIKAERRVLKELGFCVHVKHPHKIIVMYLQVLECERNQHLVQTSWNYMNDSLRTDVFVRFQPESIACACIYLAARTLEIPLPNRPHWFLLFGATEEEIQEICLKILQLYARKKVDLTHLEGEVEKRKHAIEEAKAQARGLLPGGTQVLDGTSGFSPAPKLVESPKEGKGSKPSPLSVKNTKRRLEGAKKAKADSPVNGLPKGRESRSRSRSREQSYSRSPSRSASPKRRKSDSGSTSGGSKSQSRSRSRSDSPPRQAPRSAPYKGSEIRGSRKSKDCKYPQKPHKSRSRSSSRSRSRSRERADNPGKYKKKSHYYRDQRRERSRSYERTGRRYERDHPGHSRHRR
# UniProt Q96N16: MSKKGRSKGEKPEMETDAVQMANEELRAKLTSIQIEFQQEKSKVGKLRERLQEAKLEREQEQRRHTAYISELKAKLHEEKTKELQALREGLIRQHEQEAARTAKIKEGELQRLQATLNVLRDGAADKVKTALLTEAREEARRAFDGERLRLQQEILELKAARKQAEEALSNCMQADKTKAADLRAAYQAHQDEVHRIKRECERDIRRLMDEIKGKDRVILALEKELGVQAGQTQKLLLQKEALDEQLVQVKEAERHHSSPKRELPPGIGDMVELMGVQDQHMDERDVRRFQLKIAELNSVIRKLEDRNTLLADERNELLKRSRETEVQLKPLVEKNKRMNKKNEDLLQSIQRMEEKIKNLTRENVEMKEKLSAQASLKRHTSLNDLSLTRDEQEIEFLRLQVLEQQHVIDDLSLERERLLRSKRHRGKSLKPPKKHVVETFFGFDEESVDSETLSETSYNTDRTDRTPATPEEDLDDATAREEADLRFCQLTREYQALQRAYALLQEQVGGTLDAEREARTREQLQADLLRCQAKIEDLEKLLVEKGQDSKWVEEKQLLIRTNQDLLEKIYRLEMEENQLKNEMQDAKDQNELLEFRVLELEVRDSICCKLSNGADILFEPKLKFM
# UniProt Q96EZ8, whole entry: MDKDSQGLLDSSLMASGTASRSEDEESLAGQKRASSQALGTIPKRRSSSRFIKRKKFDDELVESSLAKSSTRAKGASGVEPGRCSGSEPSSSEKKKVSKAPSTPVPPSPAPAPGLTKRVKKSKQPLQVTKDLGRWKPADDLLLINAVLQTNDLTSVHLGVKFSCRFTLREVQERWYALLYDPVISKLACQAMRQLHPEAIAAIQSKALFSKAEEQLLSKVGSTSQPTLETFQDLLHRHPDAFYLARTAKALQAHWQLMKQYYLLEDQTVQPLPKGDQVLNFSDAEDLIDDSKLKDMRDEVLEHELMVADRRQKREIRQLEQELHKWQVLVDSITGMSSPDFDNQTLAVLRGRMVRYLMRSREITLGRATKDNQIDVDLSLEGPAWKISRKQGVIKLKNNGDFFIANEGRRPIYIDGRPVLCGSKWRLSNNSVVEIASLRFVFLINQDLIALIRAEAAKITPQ
# UniProt Q96KB5: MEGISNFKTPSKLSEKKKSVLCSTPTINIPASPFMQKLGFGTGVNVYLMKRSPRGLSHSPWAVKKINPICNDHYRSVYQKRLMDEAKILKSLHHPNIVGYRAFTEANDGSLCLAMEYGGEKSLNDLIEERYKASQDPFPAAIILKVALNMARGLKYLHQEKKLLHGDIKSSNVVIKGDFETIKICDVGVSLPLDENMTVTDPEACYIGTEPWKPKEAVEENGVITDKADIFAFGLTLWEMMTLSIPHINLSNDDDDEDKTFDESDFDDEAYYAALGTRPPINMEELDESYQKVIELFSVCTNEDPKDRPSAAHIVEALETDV
# UniProt Q96GN5: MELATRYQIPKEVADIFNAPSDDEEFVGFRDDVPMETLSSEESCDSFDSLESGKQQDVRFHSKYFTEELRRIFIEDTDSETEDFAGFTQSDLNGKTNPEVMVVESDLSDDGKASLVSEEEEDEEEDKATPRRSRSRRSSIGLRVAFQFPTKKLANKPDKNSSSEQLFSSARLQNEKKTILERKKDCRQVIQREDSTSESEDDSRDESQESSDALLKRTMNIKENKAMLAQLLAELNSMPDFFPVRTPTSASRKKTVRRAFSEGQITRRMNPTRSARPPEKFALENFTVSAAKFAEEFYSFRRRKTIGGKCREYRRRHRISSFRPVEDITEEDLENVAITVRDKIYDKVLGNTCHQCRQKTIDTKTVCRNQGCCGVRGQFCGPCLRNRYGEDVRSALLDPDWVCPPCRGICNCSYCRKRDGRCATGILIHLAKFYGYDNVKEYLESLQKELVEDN
# UniProt Q96HN2, whole entry: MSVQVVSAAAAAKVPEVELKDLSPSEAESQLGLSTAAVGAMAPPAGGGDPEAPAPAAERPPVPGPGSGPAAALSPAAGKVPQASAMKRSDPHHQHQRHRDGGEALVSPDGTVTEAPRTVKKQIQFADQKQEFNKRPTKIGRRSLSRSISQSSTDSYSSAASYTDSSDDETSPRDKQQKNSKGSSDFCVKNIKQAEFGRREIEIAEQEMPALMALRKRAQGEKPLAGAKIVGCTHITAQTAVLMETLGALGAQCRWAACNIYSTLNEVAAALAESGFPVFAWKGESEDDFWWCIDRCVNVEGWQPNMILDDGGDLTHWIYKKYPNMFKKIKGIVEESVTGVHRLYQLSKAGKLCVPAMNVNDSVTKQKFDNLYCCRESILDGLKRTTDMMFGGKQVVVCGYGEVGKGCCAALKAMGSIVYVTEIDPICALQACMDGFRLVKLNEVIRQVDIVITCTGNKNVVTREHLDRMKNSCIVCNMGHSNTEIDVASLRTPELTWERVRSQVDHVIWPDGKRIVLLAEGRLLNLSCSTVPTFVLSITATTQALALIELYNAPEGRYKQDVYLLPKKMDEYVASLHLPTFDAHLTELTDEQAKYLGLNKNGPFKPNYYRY
# UniProt Q96DC7: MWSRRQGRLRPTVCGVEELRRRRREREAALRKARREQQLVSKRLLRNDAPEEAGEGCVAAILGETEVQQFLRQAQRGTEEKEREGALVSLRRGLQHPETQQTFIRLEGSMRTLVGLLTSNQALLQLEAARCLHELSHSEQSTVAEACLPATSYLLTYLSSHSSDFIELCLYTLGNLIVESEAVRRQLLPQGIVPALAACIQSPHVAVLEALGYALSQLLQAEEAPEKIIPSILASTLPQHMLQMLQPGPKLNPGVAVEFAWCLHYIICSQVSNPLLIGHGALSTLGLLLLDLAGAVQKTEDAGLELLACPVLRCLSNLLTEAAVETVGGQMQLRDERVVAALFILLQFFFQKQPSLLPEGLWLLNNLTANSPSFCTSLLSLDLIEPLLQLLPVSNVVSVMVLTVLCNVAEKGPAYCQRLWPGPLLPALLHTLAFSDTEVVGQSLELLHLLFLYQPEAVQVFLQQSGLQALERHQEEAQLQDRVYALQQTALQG
# UniProt Q96MX3: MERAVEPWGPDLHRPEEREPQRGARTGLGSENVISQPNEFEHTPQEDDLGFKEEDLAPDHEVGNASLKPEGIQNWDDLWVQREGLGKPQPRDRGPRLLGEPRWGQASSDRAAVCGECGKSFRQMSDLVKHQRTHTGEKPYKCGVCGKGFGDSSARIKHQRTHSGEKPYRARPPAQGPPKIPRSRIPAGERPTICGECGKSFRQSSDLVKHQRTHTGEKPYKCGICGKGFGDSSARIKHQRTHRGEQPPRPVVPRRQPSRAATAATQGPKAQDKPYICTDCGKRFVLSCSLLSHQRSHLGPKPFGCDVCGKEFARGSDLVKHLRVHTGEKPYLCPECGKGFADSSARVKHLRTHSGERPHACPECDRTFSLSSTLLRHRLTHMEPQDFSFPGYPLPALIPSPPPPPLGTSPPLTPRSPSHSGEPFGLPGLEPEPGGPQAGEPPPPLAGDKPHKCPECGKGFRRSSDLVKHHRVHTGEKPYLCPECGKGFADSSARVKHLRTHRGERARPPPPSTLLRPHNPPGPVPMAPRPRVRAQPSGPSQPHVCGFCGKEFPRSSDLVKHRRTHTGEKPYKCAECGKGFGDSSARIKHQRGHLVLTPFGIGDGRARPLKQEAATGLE
# UniProt Q96RS0: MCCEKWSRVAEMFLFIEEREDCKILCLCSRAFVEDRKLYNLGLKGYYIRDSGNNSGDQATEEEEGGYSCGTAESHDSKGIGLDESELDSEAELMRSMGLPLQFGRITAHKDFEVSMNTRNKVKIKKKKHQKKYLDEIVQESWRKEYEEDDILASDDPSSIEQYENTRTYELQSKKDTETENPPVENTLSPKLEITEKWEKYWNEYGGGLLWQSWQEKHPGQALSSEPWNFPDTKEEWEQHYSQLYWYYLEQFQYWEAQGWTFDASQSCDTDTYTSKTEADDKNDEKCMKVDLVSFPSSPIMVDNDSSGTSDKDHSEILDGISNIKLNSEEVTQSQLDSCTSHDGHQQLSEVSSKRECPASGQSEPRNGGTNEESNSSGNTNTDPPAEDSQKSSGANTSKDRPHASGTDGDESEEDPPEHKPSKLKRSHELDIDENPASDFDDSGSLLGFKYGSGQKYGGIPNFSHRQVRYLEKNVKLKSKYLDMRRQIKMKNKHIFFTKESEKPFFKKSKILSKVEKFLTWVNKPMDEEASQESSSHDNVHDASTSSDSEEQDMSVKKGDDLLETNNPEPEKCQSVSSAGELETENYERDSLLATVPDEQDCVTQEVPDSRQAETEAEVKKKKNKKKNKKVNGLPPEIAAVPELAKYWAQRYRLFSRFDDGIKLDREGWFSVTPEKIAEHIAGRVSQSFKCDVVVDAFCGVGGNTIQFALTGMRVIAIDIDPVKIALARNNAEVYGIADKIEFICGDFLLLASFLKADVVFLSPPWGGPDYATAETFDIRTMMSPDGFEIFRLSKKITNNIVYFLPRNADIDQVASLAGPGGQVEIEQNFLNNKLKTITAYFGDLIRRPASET
# UniProt Q96HS1, whole entry: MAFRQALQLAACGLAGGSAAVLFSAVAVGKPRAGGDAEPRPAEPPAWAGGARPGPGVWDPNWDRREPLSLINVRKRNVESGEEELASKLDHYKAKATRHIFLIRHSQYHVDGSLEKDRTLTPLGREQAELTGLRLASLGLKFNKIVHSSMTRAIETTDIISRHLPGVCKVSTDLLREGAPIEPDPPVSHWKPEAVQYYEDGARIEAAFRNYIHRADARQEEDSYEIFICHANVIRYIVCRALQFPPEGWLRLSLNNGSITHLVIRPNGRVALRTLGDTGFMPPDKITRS
# ± gives the standard deviation of the averaged measurements. Only a part is listed here, and it is no random draw. Most entries show no effect beyond the scatter of the controls.
# Compound: Nc1ncnc2c1ncn2[C@@H]1O[C@H](COP(=O)(O)OP(=O)(O)OP(=O)(O)O)[C@@H](O)[C@H]1O [adenosine triphosphate]
# Test: NP40-soluble protein abundance relative to vehicle (solubility fold change) (ratio); higher = more soluble protein in presence of ATP
# Summary of the method: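 Jurkat crude lysate prepared with a Dounce homogeniser was treated at eight concentrations spanning 0.1 to 10 mM, 10 min at room temperature then 3 min at 37 °C. Solubilisation with 0.8% NP40 and benzonase and ultracentrifugation preceded TMT labelling of the supernatant for LC-MS/MS. Fold change against the detergent-processed vehicle was determined per replicate from vsn-normalised intensities, across three independent experiments.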
Target,NP40-soluble protein abundance (concentration: 0.1mM),NP40-soluble protein abundance (concentration: 0.5mM),NP40-soluble protein abundance (concentration: 1mM),NP40-soluble protein abundance (concentration: 2mM),NP40-soluble protein abundance (concentration: 4mM),NP40-soluble protein abundance (concentration: 6mM),NP40-soluble protein abundance (concentration: 8mM),NP40-soluble protein abundance (concentration: 10mM)
CCNL2 (UniProt Q96S94),1.05 ± 0.029,1.008 ± 0.0086,–,–,–,–,–,–
PNKP (UniProt Q96T60),1.05 ± 0.02,1.05 ± 0.047,1.04 ± 0.02,1.0346 ± 0.00031,1.03 ± 0.022,1.05 ± 0.023,1.11 ± 0.036,1.157 ± 0.011
UniProt Q96N16 and related entries,0.962 ± 0.085,1.18 ± 0.08,1.17 ± 0.24,1.27 ± 0.16,1.28 ± 0.24,1.37 ± 0.19,1.27 ± 0.23,1.36 ± 0.17
UniProt Q96EZ8 and related entries,0.975 ± 0.052,1.05 ± 0.1,1.08 ± 0.04,1.06 ± 0.053,1.08 ± 0.013,1.09 ± 0.093,1.14 ± 0.038,1.18 ± 0.044
UniProt Q96KB5 and related entries,1.04 ± 0.07,1.02 ± 0.027,1 ± 0.038,0.98 ± 0.051,0.964 ± 0.031,0.949 ± 0.083,0.958 ± 0.042,0.965 ± 0.039
UniProt Q96DU3-2|Q96DU3,0.931 ± 0.038,0.872 ± 0.084,–,–,–,–,–,–
UniProt Q96GN5 and related entries,0.962 ± 0.071,1.06 ± 0.18,1.09 ± 0.19,1.16 ± 0.23,1.23 ± 0.36,1.29 ± 0.35,1.34 ± 0.41,1.42 ± 0.57
UniProt Q96HN2-2|Q96HN2,0.937 ± 0.07,0.972 ± 0.072,0.919 ± 0.042,0.934 ± 0.051,0.898 ± 0.025,0.939 ± 0.052,0.911 ± 0.017,0.934 ± 0.01
UniProt Q96DC7 and related entries,1.08 ± 0.14,0.974 ± 0.08,–,–,–,–,–,–
ZNF48 (UniProt Q96MX3),0.978 ± 0.027,1.02 ± 0.015,1.11 ± 0.069,1.13 ± 0.034,1.21 ± 0.077,1.31 ± 0.15,1.34 ± 0.12,1.4 ± 0.12
TGS1 (UniProt Q96RS0),0.985 ± 0.014,1.01 ± 0.089,0.969 ± 0.087,0.995 ± 0.067,1.03 ± 0.035,1.05 ± 0.054,1.03 ± 0.069,1.1 ± 0.026
MRPL38 (UniProt Q96DV4),0.95 ± 0.12,0.966 ± 0.067,1.04 ± 0.035,0.869 ± 0.076,0.87 ± 0.08,0.925 ± 0.3,0.86 ± 0.15,0.839 ± 0.15
PGAM5 (UniProt Q96HS1),0.958 ± 0.048,0.989 ± 0.046,1.1 ± 0.037,1.14 ± 0.083,1.3 ± 0.06,1.48 ± 0.16,1.64 ± 0.089,1.72 ± 0.11

# Some values from the results shown:
# UniProt Q96DU3-2|Q96DU3 | NP40-soluble protein abundance (concentration: 0.1mM): 0.931 ± 0.038
# UniProt Q96HN2-2|Q96HN2 | NP40-soluble protein abundance (concentration: 6mM): 0.939 ± 0.052
